According to paper PMC10653931:
Results are given in words; binding and its absence hold for the method and conditions named. Binding seen in cells or lysates may run through a third protein. Binding can be weak; no strength is given.

Molecular target: endogenous AMPK (mouse liver) (mouse (endogenous in liver))
Assay: co-IP; endogenous proteins; mouse liver homogenates in lysis buffer, immunoprecipitated by anti-AMPK antibody, immunoblot with anti-TDRD7 antibody

binding: binds
B1: endogenous TDRD7 (mouse liver) (protein, UniProt Q8K1H1 1-1086)
chain: MLEADLVSKMLRAVLQSHKNGIVLPRLQGEYRSLTGDWIPFKQLGYPTLEAYLRSVPAVVRIEASRSGEIVCYAVACTETARIAQLVARQRTSKRKIGRQINCQMRVKKAMPFFLEGKPKATLRQPGFASDYSISRKPNSALLRDRGSALGVKADVDMPPYPDTPVQRHASMSANSRFSPKSSLPASFQTHISRACPTEVNDNLNQTVEKPNITPPASYTNKMDEVQNRIKEILDKHNNGIWISKLPHFYKEFYKEDLNQGVLQQFEHWPHICTVEKPCGGGQDSLLYPARREQPLKSDQDPEKELPPPPPAPKQEVPSQGSPAVMPDVKEKVAELLGKYSSGLWASALPKAFEDMYKVKFPEDALKNLASLSDVCTINYISGNTQKAILYAKLPLPTDKILKDEGQAQGDFDIKSMIEQEYLQIEKNMAESADEFLEDITVPPLVIPTEASPSVLVVELSNTNDVVIRYVGKDYSAAQELMEDEMKEFYSKNPRVTPIQTVHVGQLLAVNAEEDAWLRAQIISTDENKIKVCYVDYGFCENIEKSKAYRLNPRFCSLSFQATKCKLAGLEVLNDDPDLVKAVESLTCGKIFAVEILDKSDVPLVVLYDTSGEDDININATCLKAICDRSLQVHLQVDAMYTNVKVTNICSDGTLYCQVPCKGLNKLNDLLHKTEDYFHCKHMTSEYFISLPFCGKICLFHCKGKWLRVEITNVHSSRALDVQFLDSGNSTSVKVSELREIPPRFLQEMLAIPPQAIKCCLADLPQSIGMWTPDAVLWLRDSVLNCSDCSIKVTKMDETKGVAYVYLFTPNNFPDPHRSINRQITNADLWKHQKDVFLSAVSTAASSPGNRNGGTPAPGSPAESLRKSHPEVIKKSVLDHTSSFSLEELPPPVHLSRSGEHMDVYVPVACHPGHFVIQPWQEIHKLEVLMEEMILYYSVSEERHIAVERDQVYAAKVENKWYRVLLKGILTNGLVSVYELDYGKHELVNIRKVQPLVDVFRKLPFQAVTAQLAGVKCSQWSEEASMVFRNHVEKKALVALVQTVVEHTNPWDRKVVLYLVDTSLPDTDTWIHDFMSQYLLELSKVN
